Data source: PubChem BioAssay AID1224830 (NIAID, 2016)
Test: 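Host factors that control LPS-induced TNF expression in human macrophages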 (primary screen). Cells: human THP-1 monocytic leukaemia cells, TNF dual-luciferase reporter clone, PMA-differentiated to macrophage-like cells. Knock-down reagent: siRNA pool against human genes, 50 nM. Duration: LPS for 4 h, given about 3 days after siRNA transfection. Treatment: bacterial LPS (TLR4 ligand), 10 ng/ml. Measurement: 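TNF firefly reporter luminescence divided by renilla, normalised to the plate median, then turned into a robust z-score for each replicate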. Reading the numbers: TNF reporter robust z-score: higher = stronger TNF reporter response to LPS. Active means: 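a well is active when its z-score exceeds 2.8 or falls below -1.5; control wells carry no call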.
Shown is a random part of about 18,000 deposited reagents. Of all reagents, about 2,900 (16%) were called active. 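Calls are made per well; low scores hint the gene aids the LPS response, high scores that it dampens it.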 Unmarked entries are inactive. Repeated entries: four replicate wells of each siRNA pool. No sequences are given here.

gene knocked down | TNF reporter robust z-score
ZNF77 | 0.17
ZNF77 | 0.3
ZNF77 | 0.51
ZNF77 | -0.42
CYP2C9 | 5.55 (active)
CYP2C9 | 0.39
CYP2C9 | 3.94 (active)
CYP2C9 | 2.51
MAPK8IP3 | 3 (active)
MAPK8IP3 | 2.94 (active)
MAPK8IP3 | 0.22
MAPK8IP3 | 0.7
PML | 1.67
PML | 4.29 (active)
PML | 1.44
PML | 3.42 (active)
TCERG1 | -0.72
TCERG1 | 1.03
TCERG1 | 0.24
TCERG1 | 0.7
BEX1 | 0.62
BEX1 | 1.06
BEX1 | 0.59
BEX1 | 1.49
HM13 | -0.67
HM13 | 1.39
HM13 | 0.92
HM13 | 2.74
AFG2B | -0.33
AFG2B | -0.32
AFG2B | 0.37
AFG2B | 0.34
ASB11 | -1.37
ASB11 | 1
ASB11 | -0.43
ASB11 | -0.44
ACTR1A | 0.03
ACTR1A | 0.5
ACTR1A | 1.9
ACTR1A | 2.73
GPD1 | 0.23
GPD1 | 0.25
GPD1 | 0.34
GPD1 | 0.38
LMTK3 | -1.19
LMTK3 | -0.81
LMTK3 | -1.17
LMTK3 | -0.35
SELENON | -0.27
SELENON | -0.75
SELENON | -0.24
SELENON | 0.09
TOB1 | -1.13
TOB1 | -0.78
TOB1 | 0.09
TOB1 | -0.37
GRB10 | -0.34
GRB10 | -0.08
GRB10 | -0.53
GRB10 | -0.38
ACACB | -0.91
ACACB | -0.42
ACACB | -1.01
ACACB | -0.07
PLSCR5 | 0.19
PLSCR5 | -0.01
PLSCR5 | 0.12
PLSCR5 | 0.04
PAF1 | -0.95
PAF1 | -0.45
PAF1 | -0.81
PAF1 | 0.12
ENTPD8 | 1.85
ENTPD8 | 3.1 (active)
ENTPD8 | 2.25
ENTPD8 | 2.77
SLX1B | -0.84
SLX1B | 0.67
SLX1B | -0.24
SLX1B | -0.16
PLCXD1 | -0.48
PLCXD1 | 0.12
PLCXD1 | -0.81
PLCXD1 | -0.35
SLC7A1 | 0.27
SLC7A1 | -0.14
SLC7A1 | 0.44
SLC7A1 | 0.61
KCNK18 | 0.17
KCNK18 | 0.35
KCNK18 | 0.29
KCNK18 | 1.45
TBL1X | 0.15
TBL1X | 0.61
TBL1X | 0.39
TBL1X | 0.37
TOPBP1 | -1
TOPBP1 | -0.26
TOPBP1 | -0.02
TOPBP1 | -0.71
ZNF273 | 0.66
ZNF273 | 1.54
ZNF273 | -0.49
ZNF273 | -0.73
CHID1 | -0.31
CHID1 | 1.39
CHID1 | 0
CHID1 | 2.77
EHHADH | 0.65
EHHADH | 0.93
EHHADH | 0.96
EHHADH | 1.57

In a second layout: results already given.
{"gene knocked down": "BEX1", "TNF reporter robust z-score": 1.06}
{"gene knocked down": "BEX1", "TNF reporter robust z-score": 0.59}
{"gene knocked down": "BEX1", "TNF reporter robust z-score": 1.49}
{"gene knocked down": "HM13", "TNF reporter robust z-score": -0.67}
{"gene knocked down": "HM13", "TNF reporter robust z-score": 1.39}
